Screening data

The results are deposited in PubChem (AID912; NCATS, 2007).

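A cell-based FRET test of anthrax lethal toxin entry, tracked through the 460 nm emission signal; the cell line is not named here.
Each compound was tested as a concentration series from about 0.0005 to 40 µM.
The number is the fitted AC50 of the 460 nm signal alone; lower values mean a more potent effect. A falling signal goes with compounds filed as inhibitors or cytotoxic, a rising one with activators or fluorescent compounds (inferred from the filed classes).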

Values are in µM.
Common to all entries: measured here: 460 nm channel.
This is a side read-out of the assay, for part of the compounds, not drawn at random.
A potency from a partial, single-point or poor curve is only a rough figure.
The first word of each remark tells which way the curve ran; it can be opposite to the aim of the assay.

Cc1ccc2nc(NC(=O)C3CCCN(S(=O)(=O)c4cccc5nsnc45)C3)sc2c1 (centres undefined) read AC50 1.995 µM (falling, single point). Cc1ccc(S(=O)(=O)N2CCN(Cc3cc(C(C)C)ccc3O)CC2)cc1 read AC50 19.95 µM (falling, partial curve, poor fit). With C=CC(C)(O)CCC=C(C)C (centres undefined) the assay gave AC50 31.62 µM (falling, partial curve, poor fit). COc1ccccc1O read AC50 1 µM (falling, full curve, poor fit). N#Cc1nc(COc2ccc(Br)cc2)oc1N1CCCCCC1 read AC50 3.162 µM (falling, single point). Result for CN(C)c1ccc(C2N([C@H](C#N)c3ccc(N(C)C)cc3)CCCN2[C@@H](C#N)c2ccc(N(C)C)cc2)cc1 (some centres undefined) was AC50 0.7943 µM (rising, single point).

CCN1/C(=C/C(=O)c2ccco2)Sc2ccccc21 read AC50 31.62 µM (rising, single point). For CSc1ccc2c(c1)c(CCN)c(C)n2Cc1ccccc1Cl the result was AC50 0.7943 µM (falling, partial curve). Result for O=C(Nc1nc(-c2ccco2)c(-c2ccco2)s1)C1CC(=O)N(c2ccc3c(c2)OCCO3)C1 (centres undefined) was AC50 12.59 µM (falling, partial curve). Cc1nc2ccccc2c2oc(C(=O)NCCN3CCN(C)CC3)cc12 read AC50 31.62 µM (falling, single point). With CCCOc1ccc(Cn2cnc3ccccc32)cc1 the assay gave AC50 12.59 µM (falling, partial curve). For COc1ccc(CNS(=O)(=O)c2ccc3oc(C(=O)O)c(C)c3c2)cc1 the result was AC50 12.59 µM (rising, partial curve).

CCCCn1c(NC(=O)c2ccccc2Cl)c(C#N)c2nc3ccccc3nc21 gave AC50 10 µM (rising, partial curve). With COc1ccc(Nc2nc(N)nc(C(F)(F)F)n2)c(OC)c1 the assay gave AC50 5.012 µM (falling, partial curve). CCN(CC)S(=O)(=O)c1ccc(NCc2ccccc2)nc1 gave AC50 3.162 µM (falling, partial curve, poor fit). CC1=C(C#N)C(c2cn(-c3ccccc3)nc2-c2cccs2)C(C#N)=C(C)N1 gave AC50 7.943 µM (rising, partial curve). N#CC1=C(N)N(c2ccccc2)C2=C(C(=O)CCC2)C1c1ccsc1 (centres undefined) read AC50 10 µM (rising, single point). Oc1cc2c(cc1O)[C@H]1c3ccccc3CN[C@@H]1CC2 gave AC50 5.012 µM (falling, single point).

Result for CCC(C)(C)n1nnnc1C(c1cc2ccc(C)cc2[nH]c1=O)N(Cc1cccnc1)Cc1ccco1 (centres undefined) was AC50 7.943 µM (rising, partial curve). For NC(=NCc1ccc(Cl)cc1)SCCCc1cnc[nH]1 the result was AC50 25.12 µM (falling, partial curve). O=c1c2ccccc2[se]n1-c1ccccc1 read AC50 0.01995 µM (falling, full curve). c1ccc2nc3c(nc2c1)CCc1nonc1-3 gave AC50 10 µM (rising, single point). For COC(=O)[C@@]1(Cc2ccccc2)[C@H]2c3cc(C(=O)N4CCCC4)n(Cc4ccc(S(C)(=O)=O)cc4)c3C[C@H]2CN1C(=O)c1ccccc1 the result was AC50 10 µM (rising, partial curve). CCCNC(=O)CS(=O)Cc1nc(-c2ccccc2C)oc1C (centres undefined) read AC50 10 µM (rising, single point).

COc1cccc(-c2nc(N3CCN(C)CC3)c3ccccc3n2)c1 read AC50 5.012 µM (rising, single point). For Cc1cc(=O)oc2cc(NC(=O)C3COc4ccccc4O3)ccc12 (centres undefined) the result was AC50 25.12 µM (falling, partial curve). Result for CCN(CC)S(=O)(=O)c1ccc(Cl)c(C(=O)Nc2nnc(C)s2)c1 was AC50 3.162 µM (rising, single point). Result for COc1cc(NC(=O)C2CCC(CNc3c(N4CCCCC4)c(=O)c3=O)CC2)cc(OC)c1 (centres undefined) was AC50 10 µM (rising, partial curve). For Cc1ccc(/C(O)=C2\C(=O)C(=O)N(CCCN(C)C)C2c2ccccn2)cc1 (centres undefined) the result was AC50 3.162 µM (rising, single point). Nc1ccncc1 read AC50 12.59 µM (falling, partial curve).

For Nc1cc(C(=O)O)c(O)c(S(=O)(=O)O)c1 the result was AC50 31.62 µM (falling, single point).

The first 3 entries again:

| structure | AC50 (µM) | curve as filed |
|---|---|---|
| `Cc1ccc2nc(NC(=O)C3CCCN(S(=O)(=O)c4cccc5nsnc45)C3)sc2c1` (centres undefined) | 1.995 | falling, single point |
| `Cc1ccc(S(=O)(=O)N2CCN(Cc3cc(C(C)C)ccc3O)CC2)cc1` | 19.95 | falling, partial curve, poor fit |
| `C=CC(C)(O)CCC=C(C)C` (centres undefined) | 31.62 | falling, partial curve, poor fit |